From the supplement of paper PMC7877785 come the findings set out here.

± gives the uncertainty stated by the source. Many of these values have a large error.

A short description of the data set: self-splicing fitness, log relative to wild type (ln ratio); higher = more splicing; Tetrahymena group I intron in knt gene, E. coli kanamycin selection, DiMSum; sequences stand for … in CUCUCU…GGAGGGAAAAGUUAUCAGGCAUGCACCUGGUAGCUAGUCUUUAAACCAAUAGAUUGCAUCGGUUUAAAAGGCAAGACCGUCAAAUUGCGGGAAAGGGGUCAACAGCCGUUCAGUACCAAGUCUCAGGGGAAACUUUGAGAUGGCCUUGCAAAGGGUAUGGUAAUAAGCUGACGGACAUGGUCCUAACCACGCAGCCAAGUCCUAAGUCAACAGAUCUUCUGUUGAUAUGGAUGCAGUUCACAGACUAAAUGUCGGUCGGGGAAGAUGUAUUCUUCUCAUAAGAUAUAGUCGGACCUCUCCUUAAUGGGAGCUAGCGGAUGAAGUGAUGCAACACUGGAGCCGCUGGGAACUAAUUUGUAUGCGAAAGUAUAUUGAUUAGUUUUGGAGUACUCGUGGUCG
The procedure, abridged:
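DiMSum derived fitness as the error-weighted combination of fold changes across replicates, kanamycin versus no kanamycin, normalised to wild type. E. coli BL21(DE3) held the library, which randomised all eight P1ex-region intron nucleotides within the knt kanamycin-resistance gene on pET-22b(+). Six replicate transformations grew overnight at 37°C or 30°C on LB agar with or without 25 μg/mL kanamycin, also containing 100 μg/mL carbenicillin, 50 μM IPTG and 0.2% rhamnose, and pooled colonies were amplicon-sequenced on an Illumina HiSeq 2500.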

In the case of GUAUAGCAAUAUUACGUACG, the “self-splicing fitness (ln)” value is, setting by setting: (30 °C) -0.281 ± 0.71; (37 °C) -1.22 ± 0.6.
Regarding CACGAGCAAUAUUACGACCA, the “self-splicing fitness (ln)” value is -1.79 ± 0.56 (30 °C) and -2.16 ± 0.65 (37 °C).
Regarding AUCAAGCAAUAUUACGUUUC, for the setting “30 °C”, the “self-splicing fitness (ln)” value is -4.59 ± 0.72.
For UAUGAGCAAUAUUACGCCAA, where the note is “30 °C”, the “self-splicing fitness (ln)” value was -3.35 ± 0.65.
On the same count and under the same terms, the same measure for GGGGAGCAAUAUUACGGAAC: -4.05 ± 1; for GGAUAGCAAUAUUACGUCCC: -1.55 ± 1.2.
Regarding CUUAAGCAAUAUUACGAAAA, the “self-splicing fitness (ln)” value (37 °C) was -3.13 ± 0.61.
Turning to CAGGAGCAAUAUUACGAGGC, the “self-splicing fitness (ln)” value (37 °C) was -1.7 ± 0.54.
CAUUAGCAAUAUUACGUAUC: the “self-splicing fitness (ln)” value (30 °C) was -3.14 ± 0.31 and the “self-splicing fitness (ln)” value (37 °C) is -2.26 ± 0.28.
With CUCGAGCAAUAUUACGACCC, where the note is “30 °C”, the “self-splicing fitness (ln)” value was -0.939 ± 0.6.
Turning to UCUAAGCAAUAUUACGAUUG, the “self-splicing fitness (ln)” value was -3.4 ± 0.18 (30 °C) and -2.26 ± 0.17 (37 °C).
In the same order, the values of AAAUAGCAAUAUUACGUUGA are -3.3 ± 0.41 and -0.771 ± 0.16.
Turning to UAGGAGCAAUAUUACGAAGA, the “self-splicing fitness (ln)” value is, setting by setting: (30 °C) -3.62 ± 0.6; (37 °C) -2.9 ± 0.61.
With UGGGAGCAAUAUUACGGUGA, the “self-splicing fitness (ln)” value (30 °C) was -4.29 ± 1.1.
UGCGAGCAAUAUUACGCCCU: under “37 °C”, the “self-splicing fitness (ln)” value is -2.3 ± 1.1.
In the case of CUGUAGCAAUAUUACGCUGC, the “self-splicing fitness (ln)” value (37 °C) is -1.91 ± 0.51.
Still for that read-out and setting: under CUCAAGCAAUAUUACGCAAC stands -2.39 ± 0.78.
Consider GUGGAGCAAUAUUACGAGGU, for which the “self-splicing fitness (ln)” value is -4.44 ± 1 (30 °C) and -2.24 ± 0.69 (37 °C).
For the sequence CUGGAGCAAUAUUACGGCCC, the “self-splicing fitness (ln)” value runs as follows: (30 °C) -3.41 ± 0.52; (37 °C) -3.08 ± 0.74.
The matching figures for GUUGAGCAAUAUUACGAAGG: -3.35 ± 0.41 and -2.68 ± 0.4.
GUUGAGCAAUAUUACGGACG: the “self-splicing fitness (ln)” value reads like this: (30 °C) -1.78 ± 0.53; (37 °C) -1.42 ± 0.29.
On to AUACAGCAAUAUUACGUAGC, for which the “self-splicing fitness (ln)” value was -3.19 ± 0.21 (30 °C) and -2.45 ± 0.23 (37 °C).
For CGACAGCAAUAUUACGCCCG, where the note is “37 °C”, the “self-splicing fitness (ln)” value was -0.858 ± 0.57.
For the sequence UGCGAGCAAUAUUACGGCAC, the “self-splicing fitness (ln)” value by setting is: (30 °C) -4.01 ± 0.59; (37 °C) -2.13 ± 0.57.
For the sequence UUCGAGCAAUAUUACGACCG, the “self-splicing fitness (ln)” value by setting is: (30 °C) -3.13 ± 0.75; (37 °C) -1.29 ± 1.2.
In the case of GGUAAGCAAUAUUACGAGCC, the “self-splicing fitness (ln)” value (30 °C) is -4.94 ± 1.
Regarding UGAUAGCAAUAUUACGGUAA, the “self-splicing fitness (ln)” value (30 °C) is -3.54 ± 0.62.
With GCGCAGCAAUAUUACGACCU, the “self-splicing fitness (ln)” value (30 °C) came out at 0.0686 ± 0.071 and the “self-splicing fitness (ln)” value (37 °C) came to 0.0313 ± 0.084.
As to GUAAAGCAAUAUUACGCUGA, the “self-splicing fitness (ln)” value (30 °C) was -1.4 ± 0.072 and the “self-splicing fitness (ln)” value (37 °C) was -0.903 ± 0.099.
As to CCUCAGCAAUAUUACGGUCC, the “self-splicing fitness (ln)” value (37 °C) is -3.22 ± 0.62.
With UGAGAGCAAUAUUACGAGUC, the “self-splicing fitness (ln)” value (30 °C) is -5.2 ± 1.
Turning to GCUUAGCAAUAUUACGGGGC, the “self-splicing fitness (ln)” value (30 °C) was -3.39 ± 0.74.
On to UCGUAGCAAUAUUACGGCGC, for which the “self-splicing fitness (ln)” value reads like this: (30 °C) -3.75 ± 1; (37 °C) -2.43 ± 1.1.
For the sequence CGAUAGCAAUAUUACGAAGC, the “self-splicing fitness (ln)” value (30 °C) was -3.92 ± 0.53.
For the sequence UGAAAGCAAUAUUACGAAGU, the “self-splicing fitness (ln)” value runs as follows: (30 °C) -3.76 ± 0.21; (37 °C) -2.96 ± 0.23.
On to CUCAAGCAAUAUUACGGUAC, for which, for the setting “30 °C”, the “self-splicing fitness (ln)” value is -3.9 ± 0.72.
On to UUAUAGCAAUAUUACGAGAG, for which the “self-splicing fitness (ln)” value (30 °C) was -3.08 ± 0.67.
In the case of GGUUAGCAAUAUUACGGACC, the “self-splicing fitness (ln)” value (30 °C) is -2.02 ± 0.69.
As to CUUUAGCAAUAUUACGGCCU, the “self-splicing fitness (ln)” value (37 °C) is -2.54 ± 1.1.
As for UCGGAGCAAUAUUACGCUGU, the “self-splicing fitness (ln)” value (30 °C) is -3.24 ± 0.8 and the “self-splicing fitness (ln)” value (37 °C) was -0.999 ± 0.52.
For the sequence CUAGAGCAAUAUUACGGCGC, for the setting “37 °C”, the “self-splicing fitness (ln)” value was -1.38 ± 0.51.
Consider GCGUAGCAAUAUUACGGCGC, for which the “self-splicing fitness (ln)” value is -2.82 ± 0.8 (30 °C) and -1.73 ± 0.68 (37 °C).
For the sequence CUGAAGCAAUAUUACGAUCC, under “37 °C”, the “self-splicing fitness (ln)” value is -2.36 ± 0.78.
With CCUUAGCAAUAUUACGCUGC, the “self-splicing fitness (ln)” value was -2.81 ± 0.28 (30 °C) and -2.48 ± 0.54 (37 °C).
For CGCUAGCAAUAUUACGUCGC, the “self-splicing fitness (ln)” value (37 °C) was -3.49 ± 1.
As to GGCGAGCAAUAUUACGCCUA, the “self-splicing fitness (ln)” value (30 °C) was -2.33 ± 0.73.
With UCGUAGCAAUAUUACGAAGA, the “self-splicing fitness (ln)” value (37 °C) was -1.51 ± 0.51.
AGCGAGCAAUAUUACGCGAC: the “self-splicing fitness (ln)” value (37 °C) is -3.25 ± 0.52.
For the sequence GCAAAGCAAUAUUACGGGUU, the “self-splicing fitness (ln)” value (30 °C) is -2.11 ± 0.12 and the “self-splicing fitness (ln)” value (37 °C) was -1.67 ± 0.16.
